Data: US20040223972A1 (FUNCTIONAL GENETICS, published 2004)
These are yes or no findings as the source states them, for the method shown. Binding seen in cells or lysates may run through a third protein. Some results given as binding are weak or reduced against the parent protein; the word gives no strength.

By UniProt entry, the sequences of proteins in these tests, tags left out. Where a name states a change or a piece, a line headed by the entry shows the natural chain unless it says otherwise.
UniProt Q99816: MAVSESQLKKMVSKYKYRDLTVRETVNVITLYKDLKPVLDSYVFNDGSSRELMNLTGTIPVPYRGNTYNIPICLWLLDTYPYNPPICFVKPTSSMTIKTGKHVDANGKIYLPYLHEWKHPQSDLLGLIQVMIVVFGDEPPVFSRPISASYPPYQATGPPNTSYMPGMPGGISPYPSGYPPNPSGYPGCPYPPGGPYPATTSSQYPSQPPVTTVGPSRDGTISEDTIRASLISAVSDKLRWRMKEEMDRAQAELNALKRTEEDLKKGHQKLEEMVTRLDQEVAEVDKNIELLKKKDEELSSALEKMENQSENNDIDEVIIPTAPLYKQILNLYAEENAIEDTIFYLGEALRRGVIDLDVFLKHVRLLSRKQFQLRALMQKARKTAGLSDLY
UniProt Q05128: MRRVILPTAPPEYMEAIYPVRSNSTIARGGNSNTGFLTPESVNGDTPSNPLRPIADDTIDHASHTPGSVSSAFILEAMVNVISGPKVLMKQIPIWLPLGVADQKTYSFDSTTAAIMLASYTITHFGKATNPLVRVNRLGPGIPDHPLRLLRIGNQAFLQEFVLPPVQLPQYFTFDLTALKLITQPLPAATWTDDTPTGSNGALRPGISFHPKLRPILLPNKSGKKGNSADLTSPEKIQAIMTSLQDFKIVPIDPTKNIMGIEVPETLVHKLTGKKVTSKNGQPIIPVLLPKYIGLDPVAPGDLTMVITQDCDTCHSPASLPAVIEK

Target: Myc tagged TSG101 full length (FL) (Homo sapiens (Human)) (UniProt Q99816)
Assay: co-immunoprecipitation with anti-Myc antibody from transfected 293T cells

Substance: Ebola VP40 (1-326) (from UniProt Q05128 1-326)
- binding: binds
